Assay results from PubChem BioAssay AID2417 (National Center for Advancing Translational Sciences (NCATS), 2010).
Out of some 140,000 compounds screened, about 4,300 (3.1%) were called active. This list was built around the results that the source calls inconclusive (neither active nor inactive); the mix of calls is not that of the screen.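 Rule for the calls: active = readout at or below -70, meaning at least 70% loss of cells showing the perinucleolar compartment, a nuclear body marking cancer cells; inconclusive = readout between -30 and a set limit; inactive = the rest.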

Test: High Content Assay for Compounds that inhibit the Assembly of the Perinucleolar Compartment;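 note: plate controls were DMSO wells for no effect and camptothecin positive control wells for full effect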
Conditions: PC3M PTB-GFP, PNC prevalence imaging, 16 h; at 10 µM; stronger effect = lower value
How it was run: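 Read-out is percentage of cells bearing a perinucleolar compartment, from automated 20x imaging of fixed, Hoechst-stained PC3M PTB-GFP cells. Cells were seeded 4 h, then exposed 16 h to compound (23 nl of library stock) in duplicate plates.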
In the case of `Cc1cc(C)c(NC(=O)CN(c2ccccc2)S(=O)(=O)N(C)C)c(C)c1`, the activity change (PNC), negative = inhibition is reported as inconclusive: -49%.
In the case of `O=C1CNC(=S)N1c1nc(-c2ccccc2)cs1`, the activity change (PNC), negative = inhibition is reported as inconclusive: -37.1%.
In the case of `O=C(CNCC1CCCO1)Nc1ccc(N2CCCCCC2)cc1` (stereo not given), the activity change (PNC), negative = inhibition is reported as inactive: -27.5%.
For `O=c1c2ccccc2nnn1CSc1ccc2ccccc2n1`, the activity change (PNC), negative = inhibition was active: -104%.
For `Cc1cc(N2C(=O)C(=O)/C(=C(/O)c3ccc(F)cc3)C2c2ccc(F)cc2)no1` (stereo not given), the activity change (PNC), negative = inhibition was inconclusive: -44.5%.
With `Cc1sc2ncn(CCC(=O)O)c(=O)c2c1C` the activity change (PNC), negative = inhibition was inconclusive: -46.6%.
With `Cc1ccc(C(=O)c2cc([N+](=O)[O-])ccc2N2CCOCC2)cc1C` the activity change (PNC), negative = inhibition was inconclusive: -30.9%.
With `O=C(O)C1C2C=CC(O2)C1C(=O)NCc1ccc(Cl)cc1` (stereo not given) the activity change (PNC), negative = inhibition was active: -131%.
For `CCOC(=O)C1CCCN(C2CC(=O)N(c3cccc(C)c3)C2=O)C1` (stereo not given), the activity change (PNC), negative = inhibition was inactive: 18.8%.
For `Cc1nc(Cl)sc1C(=O)O`, the activity change (PNC), negative = inhibition was inconclusive: -38.5%.
In the case of `O=C(NCCC1=CCCCC1)c1coc(=O)c(Br)c1`, the activity change (PNC), negative = inhibition is reported as inactive: -6.86%.
In the case of `COc1ccc(CCNC(=O)c2cc(-c3ccccc3)on2)cc1OC`, the activity change (PNC), negative = inhibition is reported as inactive: 13.9%.
In the case of `Cc1ccc(NC(=O)c2cc3c(=O)oc4ccccc4c3s2)nc1`, the activity change (PNC), negative = inhibition is reported as inconclusive: -57.2%.
With `O=C(Cn1nnc2ccccc2c1=O)NCCc1ccc(Cl)cc1Cl` the activity change (PNC), negative = inhibition was inconclusive: -70.6%.
For `CCOC(=O)NC(NCc1ccccc1)(C(F)(F)F)C(F)(F)F`, the activity change (PNC), negative = inhibition was inconclusive: -30.3%.
With `CCOC(=O)C1=C(O)/C(=C\c2cccc(OC)c2)N=C1C` the activity change (PNC), negative = inhibition was inconclusive: -42.2%.
With `N#CC(c1ccc(O)cc1)N1CCOCC1` (stereo not given) the activity change (PNC), negative = inhibition was active: -103%.
For `COc1cc(-c2nnc3n(CCc4ccccc4)c(=O)c4ccccc4n23)cc(OC)c1OC`, the activity change (PNC), negative = inhibition was inconclusive: -76.6%.
With `Cc1nc2ccccc2c2nc(N)nn12` the activity change (PNC), negative = inhibition was active: -100%.
With `CCOC(=O)c1sc2nc(C(C)C)c3c(c2c1N)CC(C)(C)OC3` the activity change (PNC), negative = inhibition was inconclusive: -45.2%.
With `CCOC(=O)c1c(NC(=O)OC)sc2c1CCC2` the activity change (PNC), negative = inhibition was inactive: 10.5%.
For `Clc1ccc(-n2nnnc2-c2ccccc2)cc1`, the activity change (PNC), negative = inhibition was inconclusive: -63.3%.
In the case of `Clc1ccc(Nc2ncnc3ccc(Br)cc23)cc1`, the activity change (PNC), negative = inhibition is reported as inconclusive: -48.6%.
In the case of `Nc1nc(-c2ccc3ccccc3c2)c(C2(O)C(=O)Nc3c(Br)cc(F)cc32)s1` (stereo not given), the activity change (PNC), negative = inhibition is reported as inactive: -15.3%.
In the case of `Cc1cc(C=C2C(=O)c3ccccc3C2=O)c(C)n1-c1ccccc1`, the activity change (PNC), negative = inhibition is reported as inactive: 49.8%.
In the case of `COc1ccc(NC(=S)N2CCC(N(C)CCN3CCOCC3)CC2)cc1Cl`, the activity change (PNC), negative = inhibition is reported as inactive: -15.5%.
For `O=C(CC(c1ccccc1)c1ccccc1O)N1CCCC1` (stereo not given), the activity change (PNC), negative = inhibition was active: -88.1%.
In the case of `CCOc1ccc2nc(NCCCNS(=O)(=O)c3ccc(C)cc3)c(C#N)cc2c1`, the activity change (PNC), negative = inhibition is reported as inconclusive: -31.1%.
With `O=C(COC(=O)c1cnccn1)Nc1ccc2c(c1)OCO2` the activity change (PNC), negative = inhibition was inconclusive: -30.4%.
With `Cc1ccc(S(=O)(=O)c2nc(-c3ccccc3)oc2NCCN2CCOCC2)cc1` the activity change (PNC), negative = inhibition was inconclusive: -66.1%.
For `Cc1nnc(NC(=O)CSC2CCCCC2)s1`, the activity change (PNC), negative = inhibition was inconclusive: -33.2%.
For `Cc1cc(NS(=O)(=O)c2ccc(NC(=S)NC(=O)c3ccc(Br)cc3)cc2)no1`, the activity change (PNC), negative = inhibition was inconclusive: -44.4%.
For `Nc1nonc1C(=O)N/N=C/c1cccc([N+](=O)[O-])c1`, the activity change (PNC), negative = inhibition was inactive: 18%.
For `c1ccc2[nH]c3cc4ncnc4cc3nc2c1`, the activity change (PNC), negative = inhibition was active: -81.2%.
For `Fc1cccc(F)c1CSc1nc2ccccc2[nH]1`, the activity change (PNC), negative = inhibition was inactive: -21.9%.
With `COC(=O)c1ccc(-n2nnnc2SCC(=O)Nc2ccccc2C(=O)OC)cc1` the activity change (PNC), negative = inhibition was inactive: 7.01%.
With `O=c1[nH]n2c(=O)c3c([nH]c2c1N=Nc1ccccc1)CCC3` the activity change (PNC), negative = inhibition was inconclusive: -77.4%.
With `CC1CCC(C(C)C)C(OC(=O)COC(=O)c2ccc(=O)[nH]c2)C1` (stereo not given) the activity change (PNC), negative = inhibition was inconclusive: -37.3%.
For `COC(=O)c1ccc(NC(=O)CNC(=O)C2CCCCC2)cc1`, the activity change (PNC), negative = inhibition was inconclusive: -44%.
With `C/C(=N\NC(=O)c1cccc(N/N=C(\C)c2ccccc2)c1)c1ccccc1` the activity change (PNC), negative = inhibition was inconclusive: -41.6%.
In the case of `CC(C)NC(=O)CN1C(=O)NC(CCc2ccccc2)C1=O` (stereo not given), the activity change (PNC), negative = inhibition is reported as inconclusive: -44%.
In the case of `CCCN(CCC)C(=O)CSc1nc2ccccc2c(=O)n1C1CCCC1`, the activity change (PNC), negative = inhibition is reported as inconclusive: -57.6%.
For `Cn1cccc1Cc1nnc(SCC(=O)NCc2ccc3c(c2)OCO3)n1CCc1ccccc1`, the activity change (PNC), negative = inhibition was inconclusive: -46%.
With `CCCCc1nc2sc3c(c2c(=O)[nH]1)CCC3` the activity change (PNC), negative = inhibition was inactive: 12.6%.
In the case of `Cc1cccc(OCC(=O)N2CCC(N3CCCCCC3)CC2)c1`, the activity change (PNC), negative = inhibition is reported as inconclusive: -71.5%.
In the case of `Cc1nn(C)cc1C(N)=O`, the activity change (PNC), negative = inhibition is reported as inconclusive: -63.4%.
In the case of `N=C1C(=O)OCC1c1ccccc1NC(=O)c1ccc(F)cc1` (stereo not given), the activity change (PNC), negative = inhibition is reported as inconclusive: -35.3%.
In the case of `COc1cccc(Nc2nc(-c3ccc(O)cc3)cs2)c1`, the activity change (PNC), negative = inhibition is reported as inactive: -19.1%.
For `COc1ccccc1-c1nnc(SCC(=O)Nc2ccc(Cl)cc2Cl)o1`, the activity change (PNC), negative = inhibition was inactive: -21.6%.
For `COCCn1c(=S)[nH]c2cc(C(=O)N3CCN(c4ccc(F)cc4)CC3)ccc2c1=O`, the activity change (PNC), negative = inhibition was inconclusive: -52.1%.
In the case of `COCCN(CCOC)S(=O)(=O)c1ccc(C(=O)Nc2nc(-c3ccccc3)c(C(=O)c3ccccc3)s2)cc1`, the activity change (PNC), negative = inhibition is reported as inactive: -13.7%.
In the case of `N#Cc1c2n(c3c(=O)[nH]cnc13)CCCC2`, the activity change (PNC), negative = inhibition is reported as inconclusive: -46.9%.
With `COc1cc2c(cc1OC)CN(c1ccc([N+](=O)[O-])cc1Cl)CC2` the activity change (PNC), negative = inhibition was inactive: -3.22%.
For `COc1cc2c(cc1NC(=O)c1cc(-c3ccncc3)nc3ccc(C)cc13)oc1ccccc12`, the activity change (PNC), negative = inhibition was inconclusive: -35.8%.
With `COC(=O)c1ccc(S(=O)(=O)NCCSc2nnc3c4ccccc4n(C)c3n2)cc1` the activity change (PNC), negative = inhibition was inactive: 15.7%.
For `CCN1CCN(c2nc(N)c([N+](=O)[O-])c(Nc3cccc(C)c3)n2)CC1`, the activity change (PNC), negative = inhibition was inconclusive: -50.5%.
With `Cc1c(NC(=O)C(C)NCC2CCCO2)c(=O)n(-c2ccccc2)n1C` (stereo not given) the activity change (PNC), negative = inhibition was inconclusive: -69.1%.
In the case of `Cc1nn(-c2cc(N3CCCCC3)ccc2[N+](=O)[O-])c(=O)c2ccccc12`, the activity change (PNC), negative = inhibition is reported as inactive: -18.9%.
With `Cc1nn(CCO)c(C)c1Oc1ccccc1O` the activity change (PNC), negative = inhibition was inactive: 8.48%.
In the case of `CCN1CCN(c2ccc(S(=O)(=O)N(CC)CC)cc2[N+](=O)[O-])CC1`, the activity change (PNC), negative = inhibition is reported as inactive: 6.75%.
